Experimental data reported in paper PMC9065044.
These are yes or no findings as the source states them, for the method shown. Binding seen in cells or lysates may run through a third protein. Binding calls can cover weak binding; strength is not graded here.

Molecular target: T1, VC155-POU6F1 (pBiFC-VC155-POU6F1) (human) (UniProt Q14863)
T1 sequence: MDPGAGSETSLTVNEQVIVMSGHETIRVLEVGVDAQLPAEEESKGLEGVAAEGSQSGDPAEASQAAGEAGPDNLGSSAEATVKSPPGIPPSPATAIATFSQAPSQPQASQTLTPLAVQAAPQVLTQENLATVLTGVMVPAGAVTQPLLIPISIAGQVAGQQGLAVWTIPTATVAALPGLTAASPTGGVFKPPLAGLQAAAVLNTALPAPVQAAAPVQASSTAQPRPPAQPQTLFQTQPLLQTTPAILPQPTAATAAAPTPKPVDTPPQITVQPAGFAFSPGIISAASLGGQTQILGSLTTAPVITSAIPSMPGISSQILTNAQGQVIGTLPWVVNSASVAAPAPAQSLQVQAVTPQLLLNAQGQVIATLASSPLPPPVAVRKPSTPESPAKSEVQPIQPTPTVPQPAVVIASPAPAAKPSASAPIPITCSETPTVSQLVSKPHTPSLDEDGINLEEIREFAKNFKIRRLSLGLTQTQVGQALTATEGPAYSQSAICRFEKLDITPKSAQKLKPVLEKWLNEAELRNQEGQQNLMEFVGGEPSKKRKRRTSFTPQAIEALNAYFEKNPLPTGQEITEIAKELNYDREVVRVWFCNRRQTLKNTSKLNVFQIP
Experiment: split reporter; BiFC; A549 cells co-transfected with pBiFC-VC155-POU6F1 and pBiFC-VN173-RORA for 24 h; confocal microscopy, excitation 488 nm, emission 500 nm

binding: binds
Substance: VN173-RORA (pBiFC-VN173-RORA) (human)
